The values are deposited in ChEMBL (CHEMBL3988442, “University of Dundee, Small-Polar-MMV Screening Library” (2021)).

Sequences of proteins named here, by UniProt entry; tags and fusion partners are left off. Residues count along the entry.
UniProt Q8IDJ8, 1-583: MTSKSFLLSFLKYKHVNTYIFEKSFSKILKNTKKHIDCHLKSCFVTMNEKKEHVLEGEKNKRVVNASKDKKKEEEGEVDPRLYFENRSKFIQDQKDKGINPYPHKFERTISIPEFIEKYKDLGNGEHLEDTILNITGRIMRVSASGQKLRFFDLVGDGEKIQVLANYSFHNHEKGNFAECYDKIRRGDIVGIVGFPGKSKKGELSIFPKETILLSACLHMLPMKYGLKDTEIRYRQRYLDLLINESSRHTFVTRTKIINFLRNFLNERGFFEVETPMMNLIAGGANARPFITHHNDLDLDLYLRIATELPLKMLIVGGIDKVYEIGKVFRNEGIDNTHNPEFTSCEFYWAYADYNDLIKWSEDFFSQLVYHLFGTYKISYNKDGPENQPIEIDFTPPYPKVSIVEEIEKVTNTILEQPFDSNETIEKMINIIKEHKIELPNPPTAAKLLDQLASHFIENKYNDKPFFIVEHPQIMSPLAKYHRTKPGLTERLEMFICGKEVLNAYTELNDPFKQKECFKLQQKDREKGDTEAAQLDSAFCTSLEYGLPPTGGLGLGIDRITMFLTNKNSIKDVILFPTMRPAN

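Enzyme assay of the cytosolic lysyl-tRNA synthetase in 384-well plates, read by luminescence. Target: Lysine-tRNA ligase, Plasmodium falciparum 3D7 (UniProt Q8IDJ8). Compounds at 30 µM. Higher reads as stronger inhibition, judged from the few compounds that gave an IC50. Of about 69,000 compounds tested this way, about 49 (0.071%) reached 50% or more in at least one test.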

Each number is a percent effect as filed.
The record does not define 0% and 100%; most values in the screen are far below 50% and negative numbers occur (in some assays of this library far below -100).
This is an unselected part of the compounds tested.

* CC(C)Oc1cc(N2CCC(N3CCC(O)CC3)CC2)nc(N)n1 | 4.556%
* Cc1ccncc1NC(=O)C1CSc2ncc(C)c(=O)n2C1 (stereo not shown) | -0.9001%
* Cn1ncc2c(N3CCC(F)(F)CC3)nc(-c3ccncc3)nc21 | 7.457%
* c1ccc(Cn2cc(CNC3CCc4ncnn4C3)cn2)cc1 (stereo not shown) | 5.71%
* CN(Cc1ccco1)C[C@H]1OC[C@@H]2CCN(Cc3ccccn3)C[C@@H]21 | 5.142%
* CN(C)C(C(=O)NCC1(Cn2cccn2)CC1)c1ccc(F)cc1 (stereo not shown) | -0.8863%
* CC(C)NC(=O)[C@H]1C[C@@H]2[C@@H](C1)OCCN2Cc1cnn(C)c1 | 6.004%
* Cc1cc(C)nc(N2CCN(C(=O)c3cc(Cl)c[nH]3)CC2)n1 | 3.716%
* Cc1nc2c(c(Nc3ccccn3)n1)CN(S(C)(=O)=O)CC2 | -1.54%
* CN1CCN(C2COC3(CCN(Cc4cccs4)CC3)C2)CC1 (stereo not shown) | 2.194%
* CCn1nc2c(cc1=O)CN(CC(=O)Nc1nnc(C)s1)CC2 | 0.8299%
* Cc1ccc(N2CCC(NC(C)c3cccs3)CC2)nc1 (stereo not shown) | 0.6497%
* Cc1cc(C(=O)N(C)Cc2ccn[nH]2)c(NC(=O)C(C)(C)C)s1 | 3.73%
* O=C(c1cn(CCN2CCCCC2)nn1)N1CCCCO1 | 1.7%
* COCC1CCN(C(=O)c2cc(O)nc(CC(C)C)c2)CC1 | 0.9318%
* CCc1nc(CN2CCCN(CC(=O)Nc3cccnc3)CC2)no1 | 3.457%
* CN(C)C(=O)CN1CCC2(CC1)CC(=O)c1ccc3ccccc3c1O2 | 1.631%
* Cc1ccc(CNC(=O)c2cc(CN3CCC(O)CC3)on2)s1 | -0.2187%
* Cc1cc(C(=O)NC2CCc3c(ccc(=O)n3CC3CC3)C2)no1 (stereo not shown) | 4.155%
* O=C(NCCCN1CCc2ccccc2C1)c1ccccc1Cl | 0.5433%
* O=C(CNC1CCc2ncnn2C1)N(C1=CCCCC1)C1CC1 (stereo not shown) | 4.428%
* CCOc1ccc2nc(NC(=O)c3c(C(=O)O)cnn3C)sc2c1 | 4.572%
* CN(C1CCN(C(=O)NCCc2ccc(F)cc2F)CC1)S(C)(=O)=O | -2.321%
* CC(C)NC(=O)N1CCC2(CC(=O)N(c3cccc(C#N)c3)C2)C1 (stereo not shown) | -3.491%
* CCn1nc(C)c(CNC(=O)c2cn(CCC3CCCCN3)nn2)c1C (stereo not shown) | 2.892%
* Cc1noc(C)c1CNCc1ccccc1N(C)C1CCN(C)CC1 | -0.2879%
* CN(Cc1ccc(Cl)s1)C(=O)NCCC(=O)N1CCCCCC1 | 6.286%
* O=C(CN1CCC(c2cc(=O)n3c(n2)CCCCC3)C1)N1CCCCC1 (stereo not shown) | 1.406%
* CN(C(=O)Nc1ccccn1)C1CCCN(c2ccccc2)C1=O (stereo not shown) | 1.482%
* CC(=O)N1CCC(C(=O)c2cnn(-c3ccccc3)c2N)C1 (stereo not shown) | -0.9959%
* Cc1cc(CNc2cccc(C(=O)N(C)c3ccccc3)c2)no1 | 5.749%
* CC(C)N1CCO[C@@H]2CN(C(=O)Cc3cccs3)CC[C@@H]2C1 | 5.382%
* COc1ccc(-c2cc(N)ccn2)c(OC)c1OC | 3.351%

The first 4 entries again:

- CC(C)Oc1cc(N2CCC(N3CCC(O)CC3)CC2)nc(N)n1 : 4.556%
- Cc1ccncc1NC(=O)C1CSc2ncc(C)c(=O)n2C1 (stereo not shown) : -0.9001%
- Cn1ncc2c(N3CCC(F)(F)CC3)nc(-c3ccncc3)nc21 : 7.457%
- c1ccc(Cn2cc(CNC3CCc4ncnn4C3)cn2)cc1 (stereo not shown) : 5.71%